Measurements reported in PMC6984811.
No constants are given. Whether binding was seen depends on the method and setting. Binding seen in cells or lysates may run through a third protein. Some entries that bind do so weakly or less than the wild type.

The chains behind the UniProt entries cited, without tags or fusion partners.
UniProt Q9WV60: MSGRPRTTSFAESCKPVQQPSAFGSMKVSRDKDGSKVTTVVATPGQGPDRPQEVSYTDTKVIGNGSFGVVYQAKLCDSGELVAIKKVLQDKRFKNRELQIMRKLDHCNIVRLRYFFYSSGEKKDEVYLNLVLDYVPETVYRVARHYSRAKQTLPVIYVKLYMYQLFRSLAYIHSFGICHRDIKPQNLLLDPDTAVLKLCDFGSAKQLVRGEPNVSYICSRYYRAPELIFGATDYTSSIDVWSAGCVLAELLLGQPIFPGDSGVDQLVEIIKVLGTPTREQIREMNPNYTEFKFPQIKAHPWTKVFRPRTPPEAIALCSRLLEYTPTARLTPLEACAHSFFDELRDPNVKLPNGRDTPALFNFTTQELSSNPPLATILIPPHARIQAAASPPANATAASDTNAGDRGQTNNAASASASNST

Molecular target: GSK3β, mouse (mouse (endogenous in cortex)) (UniProt Q9WV60)
Assay: co-IP; precleared cortical lysates of wild-type mice (P21-23) in RIPA buffer; immunoprecipitated with mouse anti-Gab1 or anti-GSK3β antibody on protein A-Sepharose beads, 2 hr in 50 mM Tris-HCl; western blot; rabbit IgG as negative control

binding: binds
B1: Gab1 (Grb2-associated binder 1), mouse (protein, UniProt Q9QYY0 1-695)
chain: MSGGEVVCSGWLRKSPPEKKLKRYAWKRRWFVLRSGRLTGDPDVLEYYKNDHAKKPIRIIDLNLCQQVDAGLTFNKKEFENSYIFDINTIDRIFYLVADSEEDMNKWVRCICDICGFNPTEEDPVKPLTGSSQAPVDSPFAISTAPASSQMEASSVALPPPYQVISLPPHPDTLGLQDDPQDYLLLINCQSKKPEPNRTLFDSAKPTFSETDCNDNVPSHQTPASSQSKHGMNGFFQQQMMYDCPPSRLTSVSGESSLYNLPRSYSHDVLPKESPSSTEADGELYTFNTPSGTAGVETQMRHVSISYDIPPTPGNTYQIPRTFPESTLGQSSKLDTIPDIPPPRPPKPHPTHDRSPVETCGVPRTASDTDSSYCIPPPAGMTPSRSNTISTVDLNKLRKDASSQDCYDIPRTFPSDRSSSLEGFHSQYKIKSVLTAGGVSGEELDENYVPMNPNSPPRQHSGSFTEPIQEPNYVPMTPGTFDFSSFGMQVPPPAHMGFRSSPKTPPRRPVPVADCEPPPVDRNLKPDRKVKPAPLDIKPLSEWEELQAPVRSPITRSFARDSSRFPMSPRPDSVHSTTSSSDSHDSEENYVPMNPNLSGEDPNLFASNSLDGGSSPMNKPKGDKQVEYLDLDLDSGKSTPPRKQKSSGSGSSMADERVDYVVVDQQKTLALKSTREAWTDGRQSTESETPTKNVK
